{"source": "patent US9353149B2", "about": "“Compounds, compositions and methods for the treatment of diseases through inhibiting TGF-β activity” (Southern Research Institute, priority 2013, dated 2016)", "origin": "cited, not measured here", "key": {"TSP1-TGF-β activation [1]": {"system": "TSP1-TGF-β activation", "details": "i.p., Akita mice; cited from earlier work"}, "TSP1-TGF-β activation [2]": {"system": "TSP1-TGF-β activation", "details": "i.p. injections; cited from earlier work"}}, "note": "Part of at least one peptide drawing is inferred or uncertain, most often the ends. Residues, ends and D or L forms follow the SMILES beside them."}
{"smiles": "CC(C)C[C@H](NC(=O)[C@H](CCCCN)NC(=O)[C@H](CO)NC(=O)[C@@H](N)CC(C)C)C(=O)O", "note": "[LSKL, leucine-serine-lysine-leucine] (H-LSKL-OH; N-terminus and C-terminus assumed)", "values": [{"measurement": "urinary TGF-β activity, renal phospho-Smad 2/3, tubulointerstitial injury and podocyte function markers", "setting": "TSP1-TGF-β activation [1]", "result": "reduced urinary TGF-β activity and renal phospho-Smad 2/3 levels and improved markers of tubulointerstitial injury and podocyte function"}, {"measurement": "cardiac fibrosis, Smad phosphorylation, left ventricular function", "setting": "TSP1-TGF-β activation [2]", "result": "reduced cardiac fibrosis, Smad phosphorylation, and improved left ventricular function"}]}
